In all, about 53,000 sequences went through this assay and about 3,700 (7%) were called active.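 Rule for the calls: active = gene knockdowns whose robust z-score for IL-1 alpha signal is at least 2 or at most -2, so actives lie on both sides; inactive = the rest.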 The list shows a part of the results.
test: Components of the Cytosolic LPS Sensing Pathway: Gene Identification via Genome-wide siRNA Screen; conditions: RAW264.7 macrophages, IL-1a HTRF, actives lie on both sides, screened at 100 nM (by protocol), cells primed 5 h with Pam3CSK4 first;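 note: robust z of the log signal after scaling to non-targeting control siRNA wells of the plate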
Summary of the method: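 Read-out: IL-1a HTRF on supernatant, divided by plate negative-control median ×100, log-transformed and converted to robust z-score. Cells were RAW264.7 given 100 nM siRNA, Pam3CSK4-primed 5 hours, then LipidA-transfected 24 hour.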

Sequence | z-score
GGUGUUUUCACACUGGAAGTT against Ube2t | inactive: 0.317
GGGUAUUAUCAAGGAGGAGTT against Bclaf1 | inactive: 0.304
GCAUACCCUAUUUAGUUUUTT against Gpr33 | inactive: -0.00896
CCAGUGACGGUGUGAUCUUTT against Ccl26 | inactive: 0.426
GCCAAGGUGCAGAUAAGGUTT against Rhox7a | active: 2.6
CGUGGAUAGGUUUUUGUGGTT against 2510009E07Rik | inactive: 0.51
GGUGAAUACUUCAGAUACATT against Sult2b1 | inactive: -0.362
GGCUUGAGGCCUAUUUCAGTT against Sod3 | inactive: 0.524
GCCGUCAUCAUGGAAGGUUTT against Bace1 | inactive: 0.0589
CCACUCCCAUAAGGGCUAUTT against Smo | inactive: -0.144
GAGAUUUACUCUGGACAUUTT against Hgsnat | inactive: 0.72
UGUACUGAUACAUACUUCCTT against Olfr1249 | inactive: -0.487
GGAAUCUUUGAGCUGGUGGTT against Mink1 | inactive: -0.23
GCUGCUAAGUCGCACAUCUTT against Ppfibp2 | inactive: 1.32
GGCACUUCCAUGCUAAAUUTT against Gpt | inactive: 1.29
CCAUAUGAUAUAGCAUGAGTT against Agtr2 | inactive: -0.894
GGCCGUGAUGCUAGAGAACTT against Zfp661 | inactive: 0.131
GGAGAAGCUAAAAUGUGAGTT against Mboat7 | inactive: -1.74
GGGAAACAUCUUCCUAUCCTT against Serpina12 | inactive: -0.958
GGAACCACUUUAUUUGUCATT against Dclk1 | inactive: 1.59
GCGGGAAACUACGAUAGUCTT against Gykl1 | inactive: -0.966
GGUUAUUAAAGCCUAUGGCTT against Grcc10 | inactive: 0.191

Sequence | z-score
GGAAAUGUUCUUCAUGUCATT against 1110038F14Rik | inactive: -1.95
GGAUUUCCUCAUGUGAUCUTT against Smad4 | inactive: -0.478
CGGAGUUGAAGUUCAUUUATT against 2700097O09Rik | inactive: 1.25
GGGAGAGUCUUUUUUUAAATT against Fndc3b | inactive: -0.0889
GGUUGCUGUUUAGUUUUCATT against 1810030O07Rik | inactive: 1.98
GGAAUAUGGACCAAGAGAGTT against Plcb2 | inactive: -1.08
GCAAGAAUGCAAUUUCUUATT against Olfr904 | inactive: -0.916
GUCUUUAGAGUCAUCCUCUTT against Olfr493 | inactive: -1.38
GGUCCAGGUCUGAAUCUAGTT against Tra2b | active: 2.48
GGUAGGAAUUUGGAAAACUTT against H2-T24 | inactive: 1.5
GCAUUAAACUGAUUAUCGATT against Chst15 | inactive: -0.0941
GGAAGACAUAAAGCUCUGUTT against Olfr1242 | inactive: 0.322
GCAGAUUUUCUCCUGCAAGTT against Insm2 | inactive: 1.1
GGAUGAGCAGAAAUGUGUATT against Plekho2 | inactive: 0.931
GCCUCGUGUAUCACAGAAUTT against Map1s | inactive: -1.09
GCGCAUUAGGAUAUAGACATT against 9530085L02Rik | inactive: 0.491
UACGCUAAGGAAUAAGGACTT against Olfr110 | inactive: 0.102
GGUAGAGACCGCAUAGAAATT against Aqp8 | inactive: 2
GGAUUAUGCAAGUUACAUUTT against Nsf | inactive: -0.63
CCCAUGACUAUCCAAACAATT against Kcnmb2 | inactive: -1.52
GGAGUCACUCUGCUCUUUUTT against Kcnn1 | inactive: -1.55
GGCCUCGAACAGUUUAUUATT against Snx12 | inactive: 0.471

Sequence | z-score
CCAGACCUGUUGUAAAGACTT against Grn | inactive: -1.29
GCCCAAAAUGUAAUCAACUTT against Paxbp1 | inactive: 0.146
GCGGAACUUUCAUUGCUGGTT against Rabggta | inactive: 1.85
GGAGAGUGAUAUCAAGCCUTT against Lbr | inactive: 1.33
UUCCCACUCUGACUAUUUUTT against Olfr970 | inactive: -0.0332
CCAGAAGUCUCAAAUUCUGTT against Ccl8 | inactive: -0.112
GGCACCUGGAUUUUCUAUGTT against Crygs | inactive: 0.26
GGGUGUUGACAGCUGUAAATT against C1s2 | inactive: 0.187
GGAACAUGACAUUUUUGUCTT against Smdt1 | inactive: -0.561
GGAAGAAGAUGACAAUGAATT against Pak3 | inactive: -1.18
CCUGUUGAGUAAGCAACAATT against 4932416K20Rik | inactive: 0.369
CGAUGAUCCUUAAAGGAUUTT against Hes5 | inactive: 0.44
GGUGAUAGAAGUUUACAUGTT against Tnfsf4 | inactive: 0.513
GCCAUCGAGUGUGACGAGATT against Nagpa | inactive: 0.651
GGUCAUUUCACUAGUUUUCTT against 9930014A18Rik | inactive: -0.28
GGGCAAUAAUGCAAAGUAUTT against 4921522P10Rik | inactive: 1.8
GGCAAUGUGUGUCUACAGUTT against Spdye4b | inactive: -0.0613
GGGAAUCAAAUUCGUCUGCTT against Sdr42e1 | inactive: 1.06
GCUGUGGUAAACUGAAACUTT against Glis2 | inactive: -1.89
CCUGCUCAGGACGACUUUUTT against Defa20 | inactive: -1.63
GGUUGGACUGACUAUCCAUTT against Olfr984 | inactive: 1.02
CCAUCGUGCUAAUAAAUAATT against Gars | inactive: -0.408

Reformatted in CSV form: entries from further up
Sequence,z-score
GCCCAAAAUGUAAUCAACUTT against Paxbp1,inactive: 0.146
CCAGAAGUCUCAAAUUCUGTT against Ccl8,inactive: -0.112
GGAAGAAGAUGACAAUGAATT against Pak3,inactive: -1.18

Later entries.

Sequence | z-score
CCAUCCGCCUGUUAGAAAGTT against Mcm9 | inactive: 0.66
GGAUGACUGAAUGAUGGGATT against Tcl1b5 | active: -2.15
GGAAAUCGAGGUUACAAGUTT against Isy1 | active: -2.64
CGGUGUAAAAUCAUCAUAGTT against Pcdhgb6 | inactive: -0.288
GGGAAAUUUGAACAACAACTT against Efnb3 | inactive: 0.47
GGAUGAUAUAUGUAACUUGTT against Nfe2l3 | inactive: 0.679
CGUGCUUAAACUUACUCCATT against Kif18a | inactive: 0.348
GCAAAUUUGCCCUAAGGACTT against Lpl | inactive: -1.28
GAGAUUUCUCCUGUUAUUUTT against Scd2 | inactive: 1.11
GCAAACAUUCGAGAUCUAUTT against Sel1l | inactive: 1.56
GGCAAACAAAACAUUGUUGTT against Pla2r1 | inactive: 0.0339
GCGCGUCUCAAAGCACUUUTT against Tbx15 | inactive: -1.45
GGAUCUUGAUACCCUCUACTT against Gp1ba | inactive: -0.533
CCGGAUCAAGAGCUUUACCTT against Trim29 | inactive: 0.905
CCGUCUUCACCUGAUACAGTT against Ube2d2b | inactive: 0.501
GCCCAUUAAUGCGUAUUUUTT against Mettl2 | inactive: 1.22
CCAGGAUUGAUUUAGAAAATT against BC107364 | inactive: 1.29
GCCUUUUAUACAUGUUUGATT against B130024G19Rik | inactive: -1.55
GGGAGACCAUUGAAGGCAUTT against Gimap8 | inactive: 1.5
GGAGAGAAUAAACUCUACUTT against Tas2r130 | inactive: -0.394
CCCACAUAAAAAACAGUUGTT against Cd274 | inactive: 1.14
GCACGGUGGUUCUAAAAGATT against Snw1 | inactive: -1.22

Sequence | z-score
GGCUACCAUGGACACAUCATT against Magea7-ps | active: -2.31
CCUCCUGUCGGACAGUGAATT against Fam170a | inactive: 1.22
GGAAGAAUGCCUACUGAUATT against Pcmtd1 | inactive: 0.849
GCUAAUCUUCCACUUGUAATT against Fnbp1l | inactive: -1.8
GAGUAUCAUCUCCUUUUCUTT against Olfr395 | inactive: -0.179
GCCGAUUUUACAUGUGAUCTT against Klf8 | inactive: 1.09
GGAGAUGAAGGGUAGCAUCTT against Thap11 | inactive: 0.999
CCAUUGGAUUGGAACUGGATT against Dhx57 | inactive: -0.288
CCCUUAAAAUACAACGAUCTT against Prnd | inactive: -0.183
GCAGCUGCACUAAAGAACGTT against Dlg1 | active: 2.9
GGAAAAAUGGAAACCUAAGTT against Nipal3 | inactive: 1.16
GCUGCAUAACUCUUACACATT against Trappc2l | inactive: -0.132
GCAGAAUUCACCCGAAACUTT against Tnip1 | inactive: 1.75
GGUUCUGUACCAUCUUCAGTT against Rab40c | inactive: -0.78
GGAGAUGCUCGCUUUUUACTT against Cutal | inactive: 1.02
GCCUUGGACUGCUUUGGAUTT against Dync1li1 | inactive: -0.379
GGUGGUUAGCGAUGAGAAUTT against Pabpc2 | inactive: 0.73
GGAGAAGACCAUAAAGAAGTT against Flywch1 | inactive: -0.554

Random excerpt: three records from the list, in no set order.
Sequence | z-score
GCGCGUCUCAAAGCACUUUTT against Tbx15 | inactive: -1.45
GGCUUGAGGCCUAUUUCAGTT against Sod3 | inactive: 0.524
GCCUUUUAUACAUGUUUGATT against B130024G19Rik | inactive: -1.55

Reference: PubChem BioAssay AID1508600 (Functional Genomics Laboratory (NCATS/FGL), 2020)
